Measurements: paper doi:10.1101/2022.03.26.485909

Molecular target: Flag-SPOP^cyto (residues 1-366) (human)
Assay: co-IP

binding: binds
B1: Myc-DUSP7 (protein, UniProt Q16829-1 1-419)
chain: MKNQLRGPPARAHMSTSGAAAAGGTRAGSEPGAGSGSGAGTGAGAATGAGAMPCKSAEWLQEELEARGGASLLLLDCRPHELFESSHIETAINLAIPGLMLRRLRKGNLPIRSIIPNHADKERFATRCKAATVLLYDEATAEWQPEPGAPASVLGLLLQKLRDDGCQAYYLQGGFNKFQTEYSEHCETNVDSSSSPSSSPPTSVLGLGGLRISSDCSDGESDRELPSSATESDGSPVPSSQPAFPVQILPYLYLGCAKDSTNLDVLGKYGIKYILNVTPNLPNAFEHGGEFTYKQIPISDHWSQNLSQFFPEAISFIDEARSKKCGVLVHCLAGISRSVTVTVAYLMQKMNLSLNDAYDFVKRKKSNISPNFNFMGQLLDFERTLGLSSPCDNHASSEQLYFSTPTNHNLFPLNTLEST

No constants are given. Whether binding was seen depends on the method and setting. Binding seen in cells or lysates may run through a third protein. Binding can be weak; no strength is given. Where a sequence is shown, tags or fusion partners need not be part of it.
